We go through 1 sequence from publication PMC4031048.

Protein sequences, listed by entry. Tags and fused reporters are not part of them. Lines headed by an entry give the natural chain unless they say otherwise; changes in a name come on top.
UniProt Q62231: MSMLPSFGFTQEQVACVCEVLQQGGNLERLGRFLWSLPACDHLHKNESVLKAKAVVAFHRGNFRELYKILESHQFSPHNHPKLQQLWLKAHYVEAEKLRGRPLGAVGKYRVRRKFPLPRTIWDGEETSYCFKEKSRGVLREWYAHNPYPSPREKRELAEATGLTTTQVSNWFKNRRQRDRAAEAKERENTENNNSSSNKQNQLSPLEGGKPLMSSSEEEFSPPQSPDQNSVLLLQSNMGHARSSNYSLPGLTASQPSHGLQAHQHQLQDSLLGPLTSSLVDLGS

The exact form of at least one protein or probe is not confirmed. At least one verdict was read from the data and is not stated in words by the source.

This series has as its target Six1 (Mus musculus) (UniProt Q62231). The experiment in a line: EMSA. Particulars: labeled probe; EMSA as previously described (ref 38); pH and temperature not given; protein translated in vitro; residues 1-284. (In general: A gel shift assay detects complexes by their altered migration in electrophoresis.)

With “TGGGGGGGCTCAGGTTTCTGTGGCGT (double strand) [Myogenin MEF3]”, the binding result is on record as “binds”.
